Earlier results in patent publication US20120021979A1 (Vanderbilt University, priority 2010, published 2012).
For at least one compound, name, drawing or mass did not settle the structure.

Details: in vivo; cited from earlier work

CCCCCCCCCCCCCCCC(=O)N[C@@H](CCC(=O)NCCCC[C@H](NC(=O)[C@H](C)NC(=O)[C@H](C)NC(=O)[C@H](CCC(N)=O)NC(=O)CNC(=O)[C@H](CCC(=O)O)NC(=O)[C@H](CC(C)C)NC(=O)[C@H](Cc1ccc(O)cc1)NC(=O)[C@H](CO)NC(=O)[C@H](CO)NC(=O)[C@@H](NC(=O)[C@H](CC(=O)O)NC(=O)[C@H](CO)NC(=O)[C@@H](NC(=O)[C@H](Cc1ccccc1)NC(=O)[C@@H](NC(=O)CNC(=O)[C@H](CCC(=O)O)NC(=O)[C@H](C)NC(=O)[C@@H](N)Cc1cnc[nH]1)[C@@H](C)O)[C@@H](C)O)C(C)C)C(=O)N[C@@H](CCC(=O)O)C(=O)N[C@@H](Cc1ccccc1)C(=O)N[C@H](C(=O)N[C@@H](C)C(=O)N[C@@H](Cc1c[nH]c2ccccc12)C(=O)N[C@@H](CC(C)C)C(=O)N[C@H](C(=O)N[C@@H](CCCNC(=N)N)C(=O)NCC(=O)N[C@@H](CCCNC(=N)N)C(=O)NCC(=O)O)C(C)C)[C@@H](C)CC)C(=O)O [liraglutide, Liraglutide]
duration of reduction of meal-related hyperglycemia after administration: 12 h
